Assay [1] concerns the target T1, Dmel\Tmem43wt::HA (Drosophila) (UniProt Q9VSB9).
T1 sequence: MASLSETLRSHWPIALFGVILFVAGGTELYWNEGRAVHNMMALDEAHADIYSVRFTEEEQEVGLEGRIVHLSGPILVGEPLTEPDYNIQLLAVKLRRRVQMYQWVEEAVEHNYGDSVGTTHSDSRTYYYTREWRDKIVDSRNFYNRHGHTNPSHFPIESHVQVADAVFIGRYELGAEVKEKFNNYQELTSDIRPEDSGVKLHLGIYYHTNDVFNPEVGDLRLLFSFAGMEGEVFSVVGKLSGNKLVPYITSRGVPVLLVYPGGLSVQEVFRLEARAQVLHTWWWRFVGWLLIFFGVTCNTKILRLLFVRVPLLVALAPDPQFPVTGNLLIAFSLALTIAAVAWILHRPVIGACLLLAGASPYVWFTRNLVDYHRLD
Put plainly: affinity purification with mass spectrometry; anti-HA-based immunoprecipitation from total protein extracts of third-instar larvae expressing the HA fusion in muscle (mef2-Gal4); isolated proteins identified by mass spectrometry; four biological replicates.

For assay [2], the target named is T2, Dmel\Tmem43wt::TurboID (Drosophila) (UniProt Q9VSB9).
T2 sequence: T1 sequence
Put plainly: proximity labelling; TurboID fusions expressed in muscle of third-instar larvae (mef2-Gal4); biotinylated proteins purified on streptavidin microbeads and identified by mass spectrometry.

These are yes or no findings as the source states them, for the method shown. In cells and extracts the contact can be indirect. A yes stands for co-enrichment or nearness to the bait. Other partners may have been found. For some assays here: Where a sequence is shown, tags or fusion partners need not be part of it.

B1: Porin (protein, UniProt Q94920 1-282)
chain: MAPPSYSDLGKQARDIFSKGYNFGLWKLDLKTKTSSGIEFNTAGHSNQESGKVFGSLETKYKVKDYGLTLTEKWNTDNTLFTEVAVQDQLLEGLKLSLEGNFAPQSGNKNGKFKVAYGHENVKADSDVNIDLKGPLINASAVLGYQGWLAGYQTAFDTQQSKLTTNNFALGYTTKDFVLHTAVNDGQEFSGSIFQRTSDKLDVGVQLSWASGTSNTKFAIGAKYQLDDDASVRAKVNNASQVGLGYQQKLRDGVTLTLSTLVDGKNFNAGGHKIGVGLELEA
With B1, the binding entry in assay [1] is “binds”.

B2: Sphingosine-1-phosphatase lyase (Sply) (protein, UniProt Q9V7Y2 1-545)
chain: MRPFSGSDCLKPVTEGINRAFGAKEPWQVATITATTVLGGVWLWTVICQDENLYIRGKRQFFKFAKKIPAVRRQVETELAKAKNDFETEIKKSNAHLTYSETLPEKGLSKEEILRLVDEHLKTGHYNWRDGRVSGAVYGYKPDLVELVTEVYGKASYTNPLHADLFPGVCKMEAEVVRMACNLFHGNSASCGTMTTGGTESIVMAMKAYRDFAREYKGITRPNIVVPKTVHAAFDKGGQYFNIHVRSVDVDPETYEVDIKKFKRAINRNTILLVGSAPNFPYGTIDDIEAIAALGVKYDIPVHVDACLGSFVVALVRNAGYKLRPFDFEVKGVTSISADTHKYGFAPKGSSVILYSDKKYKDHQFTVTTDWPGGVYGSPTVNGSRAGGIIAACWATMMSFGYDGYLEATKRIVDTARYIERGVRDIDGIFIFGKPATSVIALGSNVFDIFRLSDSLCKLGWNLNALQFPSGIHLCVTDMHTQPGVADKFIADVRSCTAEIMKDPGQPVVGKMALYGMAQSIPDRSVIGEVTRLFLHSMYYTPSQK
For B2, in assay [2], the binding entry is reported as “binds”.
